Holding throughout (type): cell-based, human
The test system of one data set is K-562 cells. As to the kind of experiment: MTT assay, K562. Particulars: SI = IC50 normal cell line (HaCaT)/IC50 cancer cell line. How it is done:
(§1) As a first step in assessing their cytotoxic properties, all thioureas of the series were assayed against four human carcinoma cell lines, such as SW480 (primary colon cancer), SW620 (metastatic colon cancer), PC3 (metastatic prostate cancer), and K-562 (chronic myelogenous leukemia), as well as against the normal cell line HaCaT (immortalized human keratinocytes). Table 1 lists the compound concentrations that produced 50% of growth inhibition (IC50, μM), generated by the MTT method, in comparison with two commonly used chemotherapeutic agents, doxorubicin and cisplatin.
(§2) The human primary (SW480), metastatic (SW620) colon cancer, metastatic prostate cancer (PC3), chronic myelogenous leukemia (K-562), and human immortal keratinocyte (HaCaT) cell lines were purchased from the American Type Culture Collection (ATCC, Rockville, MD, USA). The cells were cultured in medium according to protocols (MEM for SW480 and SW620, RPMI 1640 for PC3 and K-562, and DMEM for HaCaT cells), supplemented with 10% FBS, penicillin (100 U/mL) and streptomycin (100 μg/mL), and cultured in a 37 °C/5% CO2 humidified incubator. The cells were cultured until appropriate confluence was achieved (80–90%). Next, they were harvested by treatment with 0.25% trypsin (Gibco Life Technologies, Waltham, MA, USA) excluding the non-adherent K-562 cell line and used for studies.
(§3) Cells without the studied compounds in medium were used as a control.
(§4) The cell viability was assessed by determination of MTT salt [3-(4,5-dimethylthiazol-2-yl)-2,5-diphenyltetrazoliumbromide] conversion by mitochondrial dehydrogenase. The MTT assay was performed as previously described. Alternatively, non-adherent leukemic cells were centrifuged in a microplate centrifuge (400× g, 5 min) during the collection stages. Experiments were repeated three times. Cell viability was presented as a percent of MTT reduction in the treated cells versus the control cells. The number of viable cells cultured without the studied compounds was assumed as 100%. A decreased relative MTT level indicated decreased cell viability. Thiourea compounds with the highest cytotoxic potential assessed by MTT determination (with the lowest IC50) were chosen for subsequent assessments of cytotoxicity mechanisms.

For a further data set, the system named is SW480 cells. As to the kind of experiment: MTT assay, SW480. Particulars: SI = IC50 normal cell line (HaCaT)/IC50 cancer cell line. Here is the method:
as §1, §2, §3, §4

Another data set has as its system SW620 cells. As to the kind of experiment: MTT assay, SW620. Particulars: for SI SW620: SI = IC50 normal cell line (HaCaT)/IC50 cancer cell line. Here is the method:
as §1, §2, §3, §4

The test system of a further data set is PC3 cells. As to the kind of experiment: MTT assay, PC3. Particulars: SI = IC50 normal cell line (HaCaT)/IC50 cancer cell line. How it is done:
as §1, §2, §3, §4

This is an account of results in PMC8623398, “Investigation of the Mechanisms of Cytotoxic Activity of 1,3-Disubstituted Thiourea Derivatives” (Pharmaceuticals, 2021).

On to `Fc1ccc(NC(=S)Nc2cccc(C(F)(F)F)c2)cc1Cl` [Compound 1, 1-(3-chloro-4-fluorophenyl)-3-[3-(trifluoromethyl)phenyl]thiourea], for which the “SI K562” value with K-562 cells came to 6.4. The “SI SW480” value with SW480 cells was 3.4. Moreover, the “SI SW620” value in the data set on SW620 cells is 4.6. In the data set with PC3 cells, the “SI PC3” value is reported as 0.8.
As for `FC(F)(F)c1cccc(NC(=S)Nc2ccc(Cl)c(Cl)c2)c1` [Compound 2, 1-(3,4-dichlorophenyl)-3-[3-(trifluoromethyl)phenyl]thiourea], the “SI K562” value with K-562 cells worked out at 3.9. In addition, in the data set on SW480 cells, the “SI SW480” value was 2.7. Moreover, the “SI SW620” value in the data set on SW620 cells was determined as 16.5. Also, in the data set with SW620 cells (SW620), the “SI relative to cisplatin (times higher)” value is 18. Moreover, the “potency relative to cisplatin (times stronger)” value in the data set with SW620 cells (SW620, IC50 compared with cisplatin) is recorded as “up to 4.5”. Also, in the data set with PC3 cells, the “SI PC3” value amounted to 0.8.
For `FC(F)(F)c1cccc(NC(=S)Nc2ccc(Cl)cc2Cl)c1` [Compound 3, 1-(2,4-dichlorophenyl)-3-[3-(trifluoromethyl)phenyl]thiourea], the “SI K562” value in the data set on K-562 cells stood at 1.0. Further, the “SI SW480” value in the data set with SW480 cells was 1.7. Besides, the “SI SW620” value in the data set on SW620 cells was found to be 9.0.
For `Cc1c(Cl)cccc1NC(=S)Nc1cccc(C(F)(F)F)c1` [Compound 5, 1-(3-chloro-2-methylphenyl)-3-[3-(trifluoromethyl)phenyl]thiourea], the “SI K562” value in the data set with K-562 cells stood at 1.1. Moreover, the “SI SW480” value in the data set on SW480 cells came out at 7.6. The “SI SW620” value in the data set on SW620 cells is listed as 2.4. Also, the “SI PC3” value in the data set with PC3 cells was 1.1.
Take `FC(F)(F)c1cccc(NC(=S)Nc2ccccc2C(F)(F)F)c1` [Compound 7, 1-[2-(trifluoromethyl)phenyl]-3-[3-(trifluoromethyl)phenyl]thiourea]: in the data set with K-562 cells, the “SI K562” value was 0.9. Besides, the “SI SW480” value in the data set with SW480 cells is 0.7. The “SI SW620” value with SW620 cells is 2.2. For the same molecule, the “SI PC3” value in the data set with PC3 cells is 3.8.
In the case of `FC(F)(F)c1ccc(NC(=S)Nc2cccc(C(F)(F)F)c2)cc1` [Compound 8, 1-[3-(trifluoromethyl)phenyl]-3-[4-(trifluoromethyl)phenyl]thiourea], in the data set with K-562 cells, the “SI K562” value came to 0.8. Besides, the “SI SW480” value in the data set on SW480 cells is listed as 4.6. For the same molecule, the “SI SW620” value in the data set on SW620 cells amounted to 5.4.
Consider `FC(F)(F)c1cccc(NC(=S)Nc2ccc(Cl)cc2)c1` [Compound 9, 1-(4-chlorophenyl)-3-[3-(trifluoromethyl)phenyl]thiourea], for which the “SI K562” value with K-562 cells was found to be 7.4. In addition, in the data set with SW480 cells, the “SI SW480” value came to 1.9. For the same molecule, the “SI SW620” value with SW620 cells stood at 10.7. In the data set on PC3 cells, the “SI PC3” value amounted to 3.2.
Taken in the same sequence, the figures for `N#Cc1ccc(NC(=S)Nc2cccc(C(F)(F)F)c2)cc1` [Compound 10, 1-(4-cyanophenyl)-3-[3-(trifluoromethyl)-phenyl]thiourea] were 3.9, 2.4, 2.7 and 0.8.
As for `FC(F)(F)c1cccc(NC(=S)NCCc2ccccc2)c1` [Compound 12, 1-(2-phenylethyl)-3-[3-(trifluoromethyl)-phenyl]thiourea], the “SI K562” value in the data set on K-562 cells amounted to 2.3. The “SI SW480” value in the data set on SW480 cells is 2.2. For the same molecule, the “SI SW620” value in the data set on SW620 cells turned out to be 1.5. In the data set on PC3 cells, the “SI PC3” value is given as 2.1.
Taken in the same sequence, the figures for `COc1cccc2c1C(=O)c1c(O)c3c(c(O)c1C2=O)C[C@@](O)(C(=O)CO)C[C@@H]3O[C@H]1C[C@H](N)[C@H](O)[C@H](C)O1` [Doxorubicin, reference compound] were 1.5, 0.4, 1.0 and 1.0.
